{
  "source": "paper PMC10318405",
  "binders": {"B1": {"name": "mouse caspase-1 CARD domain tagged with EGFP (domain or fragment, UniProt P29452 1-91)", "chain": "MADKILRAKRKQFINSVSIGTINGLLDELLEKRVLNQEEMDKIKLANITAMDKARDLCDHVSKKGPQASQIFITYICNEDCYLAGILELQS"}},
  "molecular_target": "T1, untagged mouse ASC (ASC specks) (mouse) (UniProt Q9EPB4)",
  "T1 sequence": "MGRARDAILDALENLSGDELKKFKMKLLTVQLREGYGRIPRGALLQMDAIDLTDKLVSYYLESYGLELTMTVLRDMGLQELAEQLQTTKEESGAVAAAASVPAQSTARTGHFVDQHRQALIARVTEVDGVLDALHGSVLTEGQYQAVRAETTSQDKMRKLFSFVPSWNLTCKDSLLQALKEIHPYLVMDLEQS",
  "test": "staining of fixed, permeabilized cells with soluble fluorescent protein (recruitment assay); HEK293 cells with untagged mouse ASC specks fixed with 4% formaldehyde, permeabilized with 0.1% Triton X-100, incubated 30 min with soluble caspase-1 CARD-EGFP (1:50 in PBS) or ASC-RFP (1:5 in PBS) from cytosolic extracts; fluorescence of specks measured by microscopy; cells unstimulated or stimulated with hypotonic solution (90 mOsm) or nigericin before fixation",
  "note": "No constants are given. Whether binding was seen depends on the method and setting. Some binding calls cover weakened binding; strength is not graded here. Where a sequence is shown, tags or fusion partners need not be part of it.",
  "data": [
    {"binder": "B1", "values": [
      {"measurement": "binding", "value": "binds"}
    ]}
  ]
}
